The whole screen tested about 410,000 compounds, of which about 18,000 (4.4%) were called active. The shares of active, inactive and inconclusive entries below differ from those in the screen. Rule as the data show it: active = activity change below about -60%; inconclusive = no clear call, values can overlap the other calls; inactive = above about -39%.
experiment: qHTS Assay for inhibitors of the human cytomegalovirus (HCMV); settings: HFF cells, HCMV-luciferase reporter, 72 h; at 57.5 µM; hits give low values
In short: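 Two-dose cell screen: HFF monolayers treated with compounds and infected with luciferase-expressing HCMV at 1 PFU/cell, 72 h at 37C, then lysed for luciferase measurement.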
% is scaled to controls: 0 for no effect and ±100 for the full control effect.

Row | SMILES | activity change, negative = inhibition
1 | CCC(SC1=N/C(=C/c2ccccc2)C(=O)N1c1ccccc1)C(=O)Nc1cc(C)on1 (stereo not drawn) | inactive: -16.2%
2 | Cc1cc(F)ccc1NC(=O)CCn1nc(C)c(S(=O)(=O)N2CCCCC2)c1C | inconclusive: -42%
3 | CCc1ccc(CC2S/C(=C(\C#N)C(C)=O)NC2=O)cc1 (stereo not drawn) | active: -90.4%
4 | CCC(C)(C)NC(=O)CCn1c(-c2ccccc2)cc(C(C)=O)c1C | inconclusive: -59.8%
5 | C/C=C/c1cc(CN2CCN(c3ccccc3)CC2)c(O)c(OC)c1 | inconclusive: -45.1%
6 | COC(=O)c1sccc1S(=O)(=O)N(CC(=O)Nc1ccccc1)c1ccccc1 | inconclusive: -50.9%
7 | OC(c1ccc(F)cc1)(C1CCCCC1)C(CN1CCOCC1)c1ccccc1 (stereo not drawn) | inconclusive: -59.7%
8 | CC1(C)CC(NC(=S)Nc2ccc(S(N)(=O)=O)cc2)CC(C)(C)N1 | inconclusive: -46.8%
9 | CCOC(=O)[C@]12CCCC=C1N(Cc1ccccc1)C(=O)[C@H](CC(=O)NCc1ccc(OC)c(OC)c1)C2 | inactive: -2.84%
10 | O=C(N/C=N/OCc1ccc(Cl)cc1Cl)NOCc1ncc(C(F)(F)F)cc1Cl | inconclusive: -52.5%
11 | Fc1ccccc1NC(=S)N1CCC(c2ccccc2)C1 (stereo not drawn) | inactive: -17.9%
12 | N#CCCn1cc(/C=N/NC(=O)c2ccncc2)c(-c2ccc(F)cc2)n1 | inconclusive: -42%
13 | Fc1ccccc1CNCCC(Cc1ccccc1)c1ccc2c(c1)OCO2 (stereo not drawn) | inconclusive: -52.6%
14 | O=C(Cc1ccccc1F)Nc1ccc(S(=O)(=O)N2CCCC2)cc1 | inconclusive: -51.2%
15 | Cc1ccc(C(=O)C2Oc3ccccc3C3CC(c4ccc(C)cc4)=NN23)cc1 (stereo not drawn) | inconclusive: -42.1%
16 | COc1cccc(C(=O)NC(=S)Nc2nnn(C)n2)c1 | inactive: -23%
17 | c1ccc(C[C@H]2CN=C(Nc3ccccc3)N2CCCC2CCCCC2)cc1 | active: -61%
18 | COc1ccccc1N1CCN(Cc2ccccc2)CC1 | inactive: -36.4%
19 | CCCCN(CCCC)C(=O)C1(P(=O)(c2ccccc2)c2ccccc2)CCC1 | inconclusive: -51.1%
20 | Cn1cc(S(=O)(=O)Nc2ccc(Oc3ccccc3)cc2)c(=O)n(C)c1=O | inconclusive: -41.2%
21 | Cc1ccnc(-n2c(C)cc(/C=N/NC(=O)COc3cccc4cccnc34)c2C)c1 | inconclusive: -43.4%
22 | Cc1ccc(CCC(=O)Nc2ccccc2C(=O)O)o1 | inconclusive: 0%

Row | SMILES | activity change, negative = inhibition
23 | CCN1CCN(c2oc(/C=C/c3cc(OC)c(OC)c(OC)c3)nc2C#N)CC1 | inconclusive: -55%
24 | Cc1cccc(C)c1NC(=O)CN1CCCCCC1 | inactive: -12.1%
25 | O=C(CN1CCN(c2ccccc2F)CC1)N1N=CCC1c1ccccc1 (stereo not drawn) | inconclusive: -44.2%
26 | Cc1ccc(C(=O)Nc2ccc3oc(-c4ccccc4C)nc3c2)cc1 | inactive: -31.5%
27 | CCN(CC)CCCNc1oc(-c2cccc(Cl)c2)nc1C#N | inactive: 8.4%
28 | Cc1ccc(NC(=O)C2COc3ccccc3O2)cc1S(=O)(=O)N1CCCCC1 (stereo not drawn) | inconclusive: 0%
29 | CN1CC(=O)N=C1N | inconclusive: -55.5%
30 | CCCCCCC(C)OC(=O)c1ccccc1C(=O)O (stereo not drawn) | inconclusive: -47.2%
31 | O=C(O)c1c(Cl)c(Cl)c(Cl)c(Cl)c1-c1c2cc(I)c(=O)c(I)c-2oc2c(I)c(O)c(I)cc12 | inconclusive: -40.1%
32 | COc1cc(O)cc2cc3c(c(O)c12)C(=O)CC(C)(O)O3 (stereo not drawn) | inconclusive: -53.8%
33 | CCOC(=O)c1ccccc1NC(=O)COC(=O)CC(C)(C)CC1=NS(=O)(=O)c2ccccc2N1 | inconclusive: -48%
34 | Cc1cc(C)n2nc(CNS(=O)(=O)c3ccccc3)nc2n1 | inactive: 16%
35 | CC1CCc2c(c3ccccc3n2C(=O)CCl)C1 (stereo not drawn) | inactive: -13.3%
36 | O=C(CSc1nnnn1-c1ccc2c(c1)OCCO2)Nc1nc2c(s1)CCCC2 | inconclusive: -45.7%
37 | O=C(CC1NCCc2ccccc21)Nc1ccc(Oc2ccccc2)cc1 (stereo not drawn) | inconclusive: -59.5%
38 | CCOC(=O)c1cccc(NC(=O)N2CC=C(c3c[nH]c4ccccc34)CC2)c1 | inactive: 0%
39 | CCOC(=O)C1(CCOC)CCN(Cc2cnc(-c3cccc(C)c3)nc2)CC1 | inconclusive: -40.4%
40 | COc1cccc(CN2CC(C(=O)NCCc3ccccc3C(F)(F)F)CCC2=O)c1 (stereo not drawn) | inconclusive: -43.2%
41 | O=C(CCCCCN1C(=O)[C@@H]2Cc3ccccc3CN2C1=O)Nc1ccccc1F | inconclusive: -44.5%
42 | Cc1ccc(C(=O)C(C)OC(=O)c2nc(Cl)ccc2Cl)cc1 (stereo not drawn) | inconclusive: -48.8%
43 | O=C(CNC(=O)c1cccc(F)c1)N/N=C/c1ccc([N+](=O)[O-])s1 | inconclusive: -45.5%

Quoted from the listing:
Entry of `CCOC(=O)c1cccc(NC(=O)N2CC=C(c3c[nH]c4ccccc34)CC2)c1` under activity change, negative = inhibition: inactive: 0%
Entry of `Cc1cccc(C)c1NC(=O)CN1CCCCCC1` under activity change, negative = inhibition: inactive: -12.1%
